About 60 (5%) of roughly 1,200 compounds were called active. Inconclusive results (about 1%) are left out.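 The calls were made as follows: active = Decreasing signal and fitted IC50 at most twice the top valid tested dose; inconclusive = Bad fit or a level curve showing 30 to 70% inhibition; inactive = the rest.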 The list shows a part of the results. Potency and affinity values are given separately.
biological target: NAD-dependent protein deacylase sirtuin-5, mitochondrial (Homo sapiens) (UniProt Q9NXA8); experiment: SIRT5 desuccinylase inhibitors, dose response, biochemical, fluorescence imaging, cherry-pick, set 5 (AID 720591); conditions: Purified SirT5, succinyl-peptide AMC, trypsin-coupled fluorescence; at 15 µM (top of the series) unless noted;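 also: 0% = median of neutral control wells and -100% = median of positive control wells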

Sequences of proteins named here, by UniProt entry; tags and fusion partners are left off. A change or cut given only in a name is not applied to a line headed by its entry.
UniProt Q9NXA8: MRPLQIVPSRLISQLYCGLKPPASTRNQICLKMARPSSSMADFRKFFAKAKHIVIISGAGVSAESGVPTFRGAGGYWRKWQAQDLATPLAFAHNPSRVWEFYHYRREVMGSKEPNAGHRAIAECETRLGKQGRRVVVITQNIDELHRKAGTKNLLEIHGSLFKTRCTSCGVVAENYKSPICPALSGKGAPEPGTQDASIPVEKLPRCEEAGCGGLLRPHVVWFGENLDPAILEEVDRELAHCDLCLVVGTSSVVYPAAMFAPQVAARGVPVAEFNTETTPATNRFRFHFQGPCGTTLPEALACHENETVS

Activity change, negative = inhibition, inactive:
Cc1cc(OCc2cc(C(=O)NC(C)c3c(C)nn(C)c3C)no2)cc(C)c1Cl (centres undefined) -14%
COc1cccc(C2Nc3ccc4ccccc4c3C3=C2C(=O)CCC3)c1O (centres undefined) -24.5%
CCc1nonc1NC(=O)c1oc2ccc(Cl)cc2c1C 9.41%
Cc1ccc(C(=O)Nc2ncc(C)s2)o1 -20%
CCN(Cc1nc(-c2cccc(C)c2)no1)C(=O)c1ccco1 -8.96%
CS(=O)(=O)N(CC(=O)N1CCCC1)c1cccc(F)c1 -28.6%
CCN(C[C@H]1N[C@@](Cc2ccccc2)(C(=O)OC)[C@H]2C(=O)N(C)C(=O)[C@@H]12)C(=O)Nc1ccc(C(F)(F)F)cc1 3.65%
Cc1cc(NC(=O)CCC(=O)N(Cc2ccco2)C(C(=O)NC2CCCCC2)c2ccccc2)no1 (centres undefined) -34.1%
COc1ccccc1-c1nnc(NC(=O)c2ccc3ncsc3c2)o1 -30.5%
CSc1nc(N)nc2c1ncn2CC(=O)NCC1CCCO1 (centres undefined) 5.49%
CNC(=O)CSc1nnc(-c2ccco2)n1-c1ccccc1 11.6%
Cc1ccc(S(=O)(=O)N(C)c2ccc(N)cc2)cc1 -14.2%
CCCc1ccc(-c2cc(NC(=O)CSc3nnc(N)s3)n(-c3ccccc3)n2)cc1 -9.91%
CN(CC(=O)N1CCN(C2CCCCC2)CC1)S(=O)(=O)c1cccc2nsnc12 -0.3%
COc1ccc(NC(=O)C2CC(=O)n3ncnc3N2)cc1 (centres undefined) 15.5%
O=C(Nc1nc(-c2ccc(F)c(F)c2)cs1)c1ccc(OCC2CCCO2)cc1 (centres undefined) -9.16%
Nc1[nH]c(C(=O)c2ccccc2)c(-c2ccc(Cl)c(F)c2)c1C(=O)NCCc1c[nH]c2ccccc12 -18%
CC(C(=O)O)N(C(=O)c1ccccc1)c1ccc(F)cc1 (centres undefined) -1.97%
Cc1ccc(S(=O)(=O)N(C)CC(=O)N2CCN(Cc3ccc4c(c3)OCO4)CC2)cc1 -31.6%
CCOC(=O)c1c(C)[nH]c(C)c1C(=O)COC(=O)c1c(OC)cccc1OC 14.1%
CC1=NCCN1S(=O)(=O)c1c(C(C)C)cc(C(C)C)cc1C(C)C -14.9%
CCCCCCn1c(=O)n2n(c1=O)[C@@H]1CN(S(=O)(=O)c3ccc(C)cc3)C[C@]1(O)[C@@H](OC(=O)NCc1ccccc1)C2 11.7%
CC1CCN(S(=O)(=O)c2ccc(C(=O)N(C)C3CCS(=O)(=O)C3)cc2)CC1 (centres undefined) -4.28%
CCN1CCN(c2nc3c(c(=O)[nH]c(=O)n3C)n2Cc2ccccc2)CC1 13.4%

Of the compounds above, these contain two or more sulfur atoms.
Activity change, negative = inhibition, inactive:
CCCc1ccc(-c2cc(NC(=O)CSc3nnc(N)s3)n(-c3ccccc3)n2)cc1 -9.91%
CN(CC(=O)N1CCN(C2CCCCC2)CC1)S(=O)(=O)c1cccc2nsnc12 -0.3%
CC1CCN(S(=O)(=O)c2ccc(C(=O)N(C)C3CCS(=O)(=O)C3)cc2)CC1 (centres undefined) -4.28%
